Patent US20230044278A1
Positions count from the first letter of the chain named. In names and notes the source's numbering stands. No constants are given. Whether binding was seen depends on the method and setting. Some results given as binding are weak or reduced against the parent protein; the word gives no strength.

B1: humanized anti-TfR Fab 3M12 (VH4/Vk3) (Fab, V domains shown)
VH: QVQLQESGPGLVKPSQTLSLTCTVTGYSITSGYYWNWIRQPPGKGLEWIGYITFDGANNYNPSLKNRVSISRDTSKNQFSLKLSSVTAEDTATYYCTRSSYDYDVLDYWGQGTTVTVSS
VL: DIQMTQSPSSLSASVGDRVTITCRASQDISNFLNWYQQKPGQPVKLLIYYTSRLHSGVPSRFSGSGSGTDFTLTISSLQPEDFATYYCQQGHTLPYTFGQGTKLEIKR
B2: humanized anti-TfR Fab 3M12 (VH4/Vk2) (Fab, V domains shown)
VH: B1 VH
VL: B1 VL with Y87F
B3: humanized anti-TfR Fab 3M12 (VH3/Vk3) (Fab, V domains shown)
VH: B1 VH with T23S, I49M
VL: B1 VL
B4: humanized anti-TfR Fab 3M12 (VH3/Vk2) (Fab, V domains shown)
VH: B1 VH with T23S, I49M
VL: B1 VL with Y87F
B5: humanized anti-TfR Fab 5H12 (VH5-C33Y/Vk3) (Fab, V domains shown)
VH: QVQLVQSGAEVKKPGASVKVSCKASGYSFTDYYINWVRQAPGQGLEWMGWIYPGSGNTRYSERFKGRVTITRDTSASTAYMELSSLRSEDTAVYYCAREDYYPYHGMDYWGQGTLVTVSS
VL: DIVLTQSPDSLAVSLGERATINCRASESVDGYDNSFMHWYQQKPGQPPKLLIFRASNLESGVPDRFSGSGSRTDFTLTISSLQAEDVAVYYCQQSSEDPWTFGQGTKLEIKR
B6: humanized anti-TfR Fab 5H12 (VH5-C33D/Vk4) (Fab, V domains shown)
VH: B5 VH with Y33D
VL: B5 VL with L4M, R72G
B7: humanized anti-TfR Fab 5H12 (VH5-C33Y/Vk4) (Fab, V domains shown)
VH: B5 VH
VL: B5 VL with L4M, R72G

Each binder was assayed against recombinant cynomolgus monkey (Macaca fascicularis) transferrin receptor 1 (cynomolgus monkey (Macaca fascicularis)) (assay: ELISA on plate-coated recombinant cynomolgus TfR1, fluorescent anti-(H+L) IgG secondary, relative fluorescent units).

binding, binds:
B1

These binders were tested against recombinant cynomolgus monkey (Macaca fascicularis) transferrin receptor 1 (cynomolgus monkey (Macaca fascicularis)) (assay: ELISA, 230 pM to 500 nM of the Fab).

binding, binds:
B1

The binders below were run against recombinant cynomolgus monkey (Macaca fascicularis) transferrin receptor 1 (cynomolgus monkey (Macaca fascicularis)) (assay: ELISA, plate-coated recombinant TfR1).

binding, binds:
B1, B2, B3, B4

Each binder was assayed against recombinant cynomolgus monkey (Macaca fascicularis) transferrin receptor 1 (cynomolgus monkey (Macaca fascicularis)) (assay: ELISA before and after 9 days at high temperature).

binding, binds:
B1, B2, B3, B4, B5, B6, B7
